In PMC3968008 (PLoS ONE, 2014):
Converted amounts (≈) assume the structure as drawn.

Test system: P. aeruginosa (ATCC27853)
Experiment: MIC, broth microdilution
Assay type: cell-based
Settings: Pseudomonas aeruginosa, 37°C, 24 or 48 hours, individual data from two independent experiments

NC[C@H]1O[C@H](O[C@H]2[C@H](O)[C@@H](O[C@H]3O[C@H](CO)[C@@H](O)[C@H](N)[C@H]3O)[C@H](N)C[C@@H]2N)[C@H](N)C[C@@H]1O [Tobramycin]
MIC: 0.25 to 1 µg/mL (≈ 0.535 to 2.14 µM)
